These are yes or no findings as the source states them, for the method shown. In cells and extracts the contact can be indirect. Some results given as binding are weak or reduced against the parent protein; the word gives no strength.
Target: BZIP63 (UniProt B9DGI8)
Test: split reporter; BiFC: nYFP and cYFP fusions transiently co-transformed into N. benthamiana leaves; YFP fluorescence seen 72 h after injection; in triplicate

B1: BZIP63 (protein, UniProt B9DGI8 1-314)
chain: MEKVFSDEEISGNHHWSVNGMTSLNRSASEWAFNRFIQESSAAADDGESTTACGVSVSSPPNVPVDSEEYRAFLKSKLNLACAAVAMKRGTFIKPQDTSGRSDNGGANESEQASLASSKATPMMSSAITSGSELSGDEEEADGETNMNPTNVKRVKRMLSNRESARRSRRRKQAHLSELETQVSQLRVENSKLMKGLTDVTQTFNDASVENRVLKANIETLRAKVKMAEETVKRLTGFNPMFHNMPQIVSTVSLPSETSNSPDTTSSQVTTPEIISSGNKGKALIGCKMNRTASMRRVESLEHLQKRIRSVGDQ
binding: binds

Source: article PMC12230082
